{"sequences": {"note": "Protein sequences, listed by entry. Tags and fused reporters are not part of them.", "UniProt P04406": "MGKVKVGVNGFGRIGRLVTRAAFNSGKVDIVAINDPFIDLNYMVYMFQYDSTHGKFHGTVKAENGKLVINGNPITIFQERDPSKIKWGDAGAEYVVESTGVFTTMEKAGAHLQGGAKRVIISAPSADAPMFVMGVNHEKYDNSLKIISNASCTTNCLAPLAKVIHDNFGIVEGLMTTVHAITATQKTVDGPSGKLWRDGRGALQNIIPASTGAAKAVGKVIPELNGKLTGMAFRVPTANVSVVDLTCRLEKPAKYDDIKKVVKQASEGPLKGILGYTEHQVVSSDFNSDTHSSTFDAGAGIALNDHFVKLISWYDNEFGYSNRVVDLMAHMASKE"}, "source": "paper PMC10144829", "target": "GAPDH (human (endogenous in RD)) (UniProt P04406)", "assay": "co-IP", "note": "Results are given in words; binding and its absence hold for the method and conditions named. Binding seen in cells or lysates may run through a third protein.", "data": [{"binder": "human scavenger receptor class B, member 2 (hSCARB2) (receptor, UniProt Q14108 1-478) MGRCCFYTAGTLSLLLLVTSVTLLVARVFQKAVDQSIEKKIVLRNGTEAFDSWEKPPLPVYTQFYFFNVTNPEEILRGETPRVEEVGPYTYRELRNKANIQFGDNGTTISAVSNKAYVFERDQSVGDPKIDLIRTLNIPVLTVIEWSQVHFLREIIEAMLKAYQQKLFVTHTVDELLWGYKDEILSLIHVFRPDISPYFGLFYEKNGTNDGDYVFLTGEDSYLNFTKIVEWNGKTSLDWWITDKCNMINGTDGDSFHPLITKDEVLYVFPSDFCRSVYITFSDYESVQGLPAFRYKVPAEILANTSDNAGFCIPEGNCLGSGVLNVSICKNGAPIIMSFPHFYQADERFVSAIEGMHPNQEDHETFVDINPLTGIILKAAKRFQINIYVKKLDDFVETGDIRTMVFPVMYLNESVHIDKETASRLKSMINTTLIITNIPYIIMALGVFFGLVFTWLACKGQGSMDEGTADERAPLIRT", "values": [{"measurement": "binding", "value": "no binding"}]}, {"binder": "KREMEN1 (KRM1) (receptor, UniProt Q96MU8 20-473) ARPAPSPGLGPECFTANGADYRGTQNWTALQGGKPCLFWNETFQHPYNTLKYPNGEGGLGEHNYCRNPDGDVSPWCYVAEHEDGVYWKYCEIPACQMPGNLGCYKDHGNPPPLTGTSKTSNKLTIQTCISFCRSQRFKFAGMESGYACFCGNNPDYWKYGEAASTECNSVCFGDHTQPCGGDGRIILFDTLVGACGGNYSAMSSVVYSPDFPDTYATGRVCYWTIRVPGASHIHFSFPLFDIRDSADMVELLDGYTHRVLARFHGRSRPPLSFNVSLDFVILYFFSDRINQAQGFAVLYQAVKEELPQERPAVNQTVAEVITEQANLSVSAARSSKVLYVITTSPSHPPQTVPGSNSWAPPMGAGSHRVEGWTVYGLATLLILTVTAIVAKILLHVTFKSHRVPASGDLRDCHQPGTSGEIWSIFYKPSTSISIFKKKLKGQSQQDDRNPLVSD", "values": [{"measurement": "binding", "value": "no binding"}]}]}
